# Library screen at single concentrations

Sequences of proteins named here, by UniProt entry; tags and fusion partners are left off. Residues count along the entry.
UniProt I6X8D2, whole entry: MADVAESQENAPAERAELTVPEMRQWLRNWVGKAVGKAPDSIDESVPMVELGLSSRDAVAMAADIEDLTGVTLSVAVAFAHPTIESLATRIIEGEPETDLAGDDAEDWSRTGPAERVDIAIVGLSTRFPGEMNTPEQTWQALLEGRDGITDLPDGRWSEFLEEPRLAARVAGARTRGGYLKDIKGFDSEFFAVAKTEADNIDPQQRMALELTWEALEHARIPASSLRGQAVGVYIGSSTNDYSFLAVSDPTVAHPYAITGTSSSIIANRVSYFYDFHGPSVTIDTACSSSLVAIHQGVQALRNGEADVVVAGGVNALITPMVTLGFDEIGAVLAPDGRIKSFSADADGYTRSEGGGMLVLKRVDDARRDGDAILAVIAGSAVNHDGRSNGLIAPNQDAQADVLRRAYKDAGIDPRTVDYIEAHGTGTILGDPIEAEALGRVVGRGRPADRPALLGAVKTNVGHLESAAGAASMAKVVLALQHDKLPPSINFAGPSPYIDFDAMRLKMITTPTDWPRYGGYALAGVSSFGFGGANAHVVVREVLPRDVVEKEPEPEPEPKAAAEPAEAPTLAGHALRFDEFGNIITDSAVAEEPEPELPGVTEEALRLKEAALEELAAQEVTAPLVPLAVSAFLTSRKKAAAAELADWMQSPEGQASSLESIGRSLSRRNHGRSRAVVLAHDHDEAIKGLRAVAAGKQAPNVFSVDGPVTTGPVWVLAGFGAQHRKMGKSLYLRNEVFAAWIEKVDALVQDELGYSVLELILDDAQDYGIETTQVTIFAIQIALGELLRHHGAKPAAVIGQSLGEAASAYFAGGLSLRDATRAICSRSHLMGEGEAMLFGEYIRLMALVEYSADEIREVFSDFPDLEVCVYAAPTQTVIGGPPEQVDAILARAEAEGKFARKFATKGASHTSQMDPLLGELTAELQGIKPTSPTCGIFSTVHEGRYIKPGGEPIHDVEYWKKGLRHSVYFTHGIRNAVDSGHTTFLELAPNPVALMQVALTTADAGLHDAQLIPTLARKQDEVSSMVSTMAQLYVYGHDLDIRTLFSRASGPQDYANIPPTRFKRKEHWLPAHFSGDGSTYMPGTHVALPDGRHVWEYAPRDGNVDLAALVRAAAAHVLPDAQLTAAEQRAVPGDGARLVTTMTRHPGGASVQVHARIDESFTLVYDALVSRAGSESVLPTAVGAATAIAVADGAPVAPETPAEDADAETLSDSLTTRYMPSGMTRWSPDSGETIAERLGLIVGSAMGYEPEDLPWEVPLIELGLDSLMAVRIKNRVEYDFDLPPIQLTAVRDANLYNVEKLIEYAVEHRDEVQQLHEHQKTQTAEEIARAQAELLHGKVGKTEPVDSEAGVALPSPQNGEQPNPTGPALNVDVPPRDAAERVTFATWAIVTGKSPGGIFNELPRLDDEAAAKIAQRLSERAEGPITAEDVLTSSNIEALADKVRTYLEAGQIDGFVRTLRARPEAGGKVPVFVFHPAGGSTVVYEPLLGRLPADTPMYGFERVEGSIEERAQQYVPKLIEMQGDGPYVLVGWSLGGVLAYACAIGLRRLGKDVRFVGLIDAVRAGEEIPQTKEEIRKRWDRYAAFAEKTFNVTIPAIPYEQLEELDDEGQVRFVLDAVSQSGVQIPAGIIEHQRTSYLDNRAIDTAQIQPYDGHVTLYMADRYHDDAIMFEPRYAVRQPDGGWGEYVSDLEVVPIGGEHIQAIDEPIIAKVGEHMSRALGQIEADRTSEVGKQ
UniProt Q4DA54, 1-478: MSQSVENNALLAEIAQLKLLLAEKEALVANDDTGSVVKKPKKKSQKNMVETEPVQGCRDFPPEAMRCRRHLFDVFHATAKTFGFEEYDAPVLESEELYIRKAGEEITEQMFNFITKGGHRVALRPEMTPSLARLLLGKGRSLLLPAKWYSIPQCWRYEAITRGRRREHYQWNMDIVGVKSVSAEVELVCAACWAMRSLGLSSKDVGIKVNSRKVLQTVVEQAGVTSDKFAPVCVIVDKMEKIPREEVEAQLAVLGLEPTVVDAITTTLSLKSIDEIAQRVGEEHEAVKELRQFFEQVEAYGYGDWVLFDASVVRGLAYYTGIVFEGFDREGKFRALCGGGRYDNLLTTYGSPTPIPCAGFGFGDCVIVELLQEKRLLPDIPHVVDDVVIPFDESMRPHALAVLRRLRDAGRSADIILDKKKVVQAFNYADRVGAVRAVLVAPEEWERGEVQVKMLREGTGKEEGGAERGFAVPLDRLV
UniProt P9WFT3, whole entry: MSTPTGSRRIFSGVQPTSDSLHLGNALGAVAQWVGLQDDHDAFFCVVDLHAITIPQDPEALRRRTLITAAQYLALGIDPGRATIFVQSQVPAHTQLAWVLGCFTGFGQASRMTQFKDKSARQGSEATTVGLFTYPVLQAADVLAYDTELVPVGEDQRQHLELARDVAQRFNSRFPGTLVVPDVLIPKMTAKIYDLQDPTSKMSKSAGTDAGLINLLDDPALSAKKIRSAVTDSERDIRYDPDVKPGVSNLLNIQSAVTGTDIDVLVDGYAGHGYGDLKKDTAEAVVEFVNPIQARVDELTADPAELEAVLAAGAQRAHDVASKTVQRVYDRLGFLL
UniProt P9WPC5, whole entry: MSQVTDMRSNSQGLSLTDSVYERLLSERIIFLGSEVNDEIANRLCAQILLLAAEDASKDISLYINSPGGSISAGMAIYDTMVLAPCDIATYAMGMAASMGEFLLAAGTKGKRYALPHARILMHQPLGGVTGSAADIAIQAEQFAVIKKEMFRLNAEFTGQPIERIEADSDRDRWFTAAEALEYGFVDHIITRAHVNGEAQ
UniProt P9WPC3, whole entry partner: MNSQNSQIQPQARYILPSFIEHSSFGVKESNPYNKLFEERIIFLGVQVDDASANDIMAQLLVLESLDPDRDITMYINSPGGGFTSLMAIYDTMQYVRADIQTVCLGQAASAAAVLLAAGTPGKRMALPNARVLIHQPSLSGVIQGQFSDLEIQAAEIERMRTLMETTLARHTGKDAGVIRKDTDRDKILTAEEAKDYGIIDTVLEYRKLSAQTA

Pks13 thioesterase: 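Polyketide synthase Pks13, Mycobacterium tuberculosis (UniProt I6X8D2). Enzyme assay of the thioesterase domain of polyketide synthase 13; the read-out is not stated. Tested at 30 µM. The record gives no direction; the compounds picked for IC50 retests had high values, so higher reads as stronger inhibition. Of about 67,000 compounds tested this way, about 300 (0.46%) reached 50% or more in at least one test.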
TcHisRS: 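Enzyme assay of histidyl-tRNA synthetase; the read-out is not stated. Target: Histidine-tRNA ligase, Trypanosoma cruzi CL Brener (UniProt Q4DA54). Compounds at 30 µM. Higher reads as stronger inhibition (inferred: compounds with an IC50 in retests scored well above the rest). About 69,000 compounds were tested under these conditions; 0.045% (about 31) showed 50% or more at least once.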
MtTrpRS: 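Enzyme assay of tryptophanyl-tRNA synthetase; the read-out is not stated. Target: Tryptophan-tRNA ligase, Mycobacterium tuberculosis (UniProt P9WFT3). Tested at 10 µM. Higher most likely means stronger inhibition; the record gives no direction and few retests gave an IC50. Size under these conditions: about 65,000 compounds, about 64 of them at 50% or above in at least one test.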
ClpP1P2: 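ClpP1P2, Mycobacterium tuberculosis (UniProt P9WPC5 and UniProt P9WPC3). Protease assay of ClpP1P2, read by the AMC dye that it sets free. Tested at 50 µM. Higher reads as stronger inhibition, judged from the few compounds that gave an IC50. Most other retested compounds had strongly negative values. About 69,000 compounds were tested under these conditions; 0.015% (about 10) showed 50% or more at least once.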

The filed quantity is “Percent Effect” (%).
How 0% and 100% were set is not recorded. Most values in the screen are low, and negative values occur.
The compounds are a random part of those screened.
A dash means the value is not listed here; it may have been measured.

compound	Pks13 thioesterase	TcHisRS	MtTrpRS	ClpP1P2
COCCN(C)C(=O)c1nc2c(s1)CCCN2C	-13.33%	14.21%	1.549%	-6.755%
Cc1cc(NS(=O)(=O)c2ccc(C(=O)O)cc2F)ccc1F	-6.876%	-0.8596%	-1.183%	-4.599%
O=C(c1ccoc1)N1CCC2(CC1)COC(COc1ccccn1)C2 (centres undefined)	-20.55%	2.174%	-3.314%	-3.26%
Cc1ccc(C(=O)N2CCc3ncnc(C)c3CC2)o1	32.14%	4.478%	5.721%	-8.11%
Cc1ccc(N2CCCC(NCc3ccccn3)C2)nn1 (centres undefined)	-11.63%	6.017%	3.36%	15.81%
CSCC(=O)N(C)Cc1cnn(-c2ccc(F)cc2)c1	-8.506%	0%	-7.842%	6.546%
COc1ccc(OC)c(-c2nc(CN(C)Cc3noc(C)n3)c(C)o2)c1	5.324%	4.878%	2.583%	-4.688%
NC(=O)C1CCCN1CCCc1ccc(C(F)(F)F)cc1 (centres undefined)	-31.54%	3.922%	-1.845%	-1.74%
COc1ccc(N2CCN(Cc3nc(CSC)no3)C(C)C2=O)cc1 (centres undefined)	-20.48%	7.463%	-1.989%	-16.65%
Cc1nc(C)c(CC(=O)NCc2ccc(F)cc2F)s1	-19.86%	0%	-1.292%	5.388%
CCN1CCN(C2CCN(Cc3noc(C)n3)CC2)C1=O	-21.3%	3.759%	-0.5507%	12.85%
Cc1nnc(CN2CCCC2c2ccsc2)o1 (centres undefined)	-8.197%	7.059%	-0.2241%	-15.29%
Cn1c(=O)c2cc(C(=O)NCCOc3ccccc3)ccc2n(C)c1=O	9.001%	-6.936%	-	7.461%
COc1cc(-c2cccc3c2OC(CN)C3)ccc1O (centres undefined)	-0.191%	4.242%	-2.977%	5.072%
CNC(=O)NC(=O)CCN1CCOC(c2ccc(Br)cc2)C1 (centres undefined)	-39.72%	2.618%	4.114%	1.361%
CN(C)C(=O)CNC(=O)Nc1cccc(Cl)c1SC(F)F	-7.317%	4.065%	-4.36%	-17.52%
CCc1ccc(-c2c(C)c(-c3cnn(C)c3)nc(N)c2C#N)o1	-30.78%	10.87%	-6.202%	-31.88%
O=C1NCCCCC1NC(=O)N1CCCc2cc(F)ccc21 (centres undefined)	-9.919%	10.71%	-2.053%	-3.181%
CC(c1ccccn1)N(C)Cc1cc2cc3c(cc2[nH]c1=O)OCO3 (centres undefined)	6.114%	-4%	-1.288%	-52.18%
Cc1ccc(Sc2nccn(C)c2=O)cc1	-	6.667%	-2.279%	-0.6036%
CCN1CCN(C2CCN(Cc3nc(C)c(C)o3)CC2)C1=O	-12.25%	6.286%	-4.585%	-3.608%
Oc1cccc2ccc(CN3CCC4(CCNCC4)C3)nc12	-3.797%	11.73%	-1.143%	-11.37%
COc1cc(OC)c(-c2nc3c([nH]2)c(C2CC2)nn3C)cc1OC	-20.31%	2.762%	2.129%	-2.71%
CC(NC(=O)CNCCn1cccn1)c1ccc2c(c1)OCCO2 (centres undefined)	-11.58%	-0.7634%	3.437%	1.806%
CC(C)n1ncc2c1NC(=O)CC21C(=O)Nc2c(Cl)cccc21 (centres undefined)	-31.18%	-1.639%	-5.226%	0.8274%
CC1CCN(C(=O)[C@@H]2CC[C@@H]3[C@@H](CCN3c3ncc(F)cn3)O2)CC1	-18.26%	7.463%	-3.067%	-2.983%
Cn1ncc2c1CCCC2NCc1ccc(Cl)s1 (centres undefined)	-11.5%	1.132%	0.2346%	14.06%
O=C(Nc1ccccc1)C1=CC2(CCNCC2)c2ccccc21	-14.89%	1.504%	4.046%	3.15%
CCCOC(C)C(=O)NCc1cc2n(n1)CCCN(C1CCCCC1)C2 (centres undefined)	-4.219%	3.518%	-1.761%	4.561%
CS(=O)(=O)CCOCCNc1ccc(Br)cn1	-32.22%	0.4926%	5.685%	-4.463%
O=C(c1ccc(Br)o1)N1CCCC(n2cncn2)C1 (centres undefined)	-5.165%	6.504%	-1.896%	-4.428%
COc1cccc(CN2CCC3(CCN(c4ncc(C)cn4)C3)C2=O)c1 (centres undefined)	-35.14%	5.376%	-1.621%	-2.389%
O=S(=O)(c1cncc(F)c1)N1CCSC2(CCCCC2)C1	-18.2%	6.25%	-2.859%	-16.71%
CCN1CCC(NC(=O)CN2CCCCC2Cn2cccn2)CC1 (centres undefined)	7.484%	6.186%	-0.5482%	-2.575%
CN(CCc1ccccc1)Cc1cc(C(=O)N2CCSCC2)no1	16.43%	0%	2.257%	-20.69%
CCC(=O)NC1CCN(c2cccc(CC)c2)CC1	-13.44%	6.391%	-2.632%	1.799%
CC(=O)Nc1nc(C(=O)NC(C)c2ccncc2)cs1 (centres undefined)	-21.07%	-7.563%	2.36%	-8.509%
CC(C)Oc1ccccc1C(=O)NC1CC(=O)N(CC(F)(F)F)C1 (centres undefined)	-27.14%	1.961%	4.951%	8.791%
CCc1nnc2n1CCN(C(=O)c1ccc3nc(C)c(C)nc3c1)C2	-4.43%	8.13%	3.602%	-8.118%
CCCC(=O)NC1CCCN(c2cncc(Br)c2)C1 (centres undefined)	1.92%	9.091%	-4.43%	-7.441%
Cc1nn2cccnc2c1C(=O)NCc1ccccc1OC1CCC1	-10.54%	3.03%	1.235%	-9.655%
COc1ccc(F)c(CN2CCCC(O)(CNCc3ncc[nH]3)C2=O)c1 (centres undefined)	-29.35%	-1.02%	0%	2.381%
Cc1cc(C(=O)NCC(F)(F)F)c2c(C3CCCN3)noc2n1 (centres undefined)	4.17%	6.509%	-1.296%	-19.75%
Cc1nc(C2CCCN(C(=O)c3cc(-c4ccccc4)[nH]n3)C2)no1 (centres undefined)	5.225%	0%	-2.206%	-19.96%
O=c1cc(CNCc2ccc3c(c2)OCO3)nc2ccc(Br)cn12	48.67%	-79.21%	-0.3236%	15.8%
O=c1cc(CN2CCCCC2c2cccc(F)c2)[nH]c2ncnn12 (centres undefined)	-27.75%	9.392%	-4.549%	-7.988%
O=C(Nc1cccnc1)Nc1ccn(CC(F)F)n1	-50.56%	9.554%	-4.339%	1.564%
COc1ccc(Br)cc1Cn1nc(C(N)=O)ccc1=O	35.61%	0%	-4.489%	-13.48%
Cc1noc(C)c1CN1CCCC1c1nc(-c2ccccc2)no1 (centres undefined)	-26.64%	0%	-7.066%	-2.478%
CCn1nccc1CNc1nc(N)nc2c1nc(C)n2C	0.2976%	7.895%	6.882%	-16.31%
Cn1cc(CCNC(=O)NCc2ccc3c(c2)OCCO3)cn1	-20.65%	6.706%	2.225%	-8.085%
Cc1nn(C)c(N(C)C)c1CNCc1cccnc1OC(C)C	-6.868%	9.456%	8.471%	17.92%
CCC(C)N(Cc1sccc1C)C(=O)c1cc(N)ccn1 (centres undefined)	-19.61%	2.488%	0.4699%	-9.23%
CC1(C)CC(C(=O)N2CCC3(CCC(=O)N(C4CC4)C3)CC2)CCO1 (centres undefined)	6.976%	0%	3.536%	-2.881%
Cc1cc(CN2C[C@@H]3CN(C(=O)c4ccsc4)CCO[C@@H]3C2)no1	-21.76%	7.65%	3.171%	-2.32%
NC(=O)C1CN(Cc2c[nH]cn2)CCN(C2CCOCC2)C1 (centres undefined)	-49.53%	3.784%	-1.421%	-8.618%
Cc1cc(C(=O)N2CCCC(n3cncn3)C2)c(C)n1C1CC1 (centres undefined)	-6.617%	-1.88%	-2.437%	1.214%
CCCOc1cc(C)ccc1NC(=O)N(C)Cc1cnn(C)c1	-5.257%	2.616%	1.13%	-25.15%
Cn1ncc2c(N[C@@H]3C[C@@H]4CC[C@H]3C4)nc(-c3ccncc3)nc21	-16.47%	2.679%	1.361%	-4.777%
CN(Cc1nc(-c2cccnc2)no1)C(=O)c1cnc2n1CCCC2	6.826%	7.792%	-1.188%	6.084%

Once more, the final 4:

- Cc1cc(C(=O)N2CCCC(n3cncn3)C2)c(C)n1C1CC1 (centres undefined) : Pks13 thioesterase: -6.617%; TcHisRS: -1.88%; MtTrpRS: -2.437%; ClpP1P2: 1.214%
- CCCOc1cc(C)ccc1NC(=O)N(C)Cc1cnn(C)c1 : Pks13 thioesterase: -5.257%; TcHisRS: 2.616%; MtTrpRS: 1.13%; ClpP1P2: -25.15%
- Cn1ncc2c(N[C@@H]3C[C@@H]4CC[C@H]3C4)nc(-c3ccncc3)nc21 : Pks13 thioesterase: -16.47%; TcHisRS: 2.679%; MtTrpRS: 1.361%; ClpP1P2: -4.777%
- CN(Cc1nc(-c2cccnc2)no1)C(=O)c1cnc2n1CCCC2 : Pks13 thioesterase: 6.826%; TcHisRS: 7.792%; MtTrpRS: -1.188%; ClpP1P2: 6.084%

Source: ChEMBL document CHEMBL3988442, “University of Dundee, Small-Polar-MMV Screening Library” (2021).